# Source: article PMC10896376
# Protein sequences, listed by entry. Tags and fused reporters are not part of them. Residues count along the entry.
# UniProt P07237, residues 18-508: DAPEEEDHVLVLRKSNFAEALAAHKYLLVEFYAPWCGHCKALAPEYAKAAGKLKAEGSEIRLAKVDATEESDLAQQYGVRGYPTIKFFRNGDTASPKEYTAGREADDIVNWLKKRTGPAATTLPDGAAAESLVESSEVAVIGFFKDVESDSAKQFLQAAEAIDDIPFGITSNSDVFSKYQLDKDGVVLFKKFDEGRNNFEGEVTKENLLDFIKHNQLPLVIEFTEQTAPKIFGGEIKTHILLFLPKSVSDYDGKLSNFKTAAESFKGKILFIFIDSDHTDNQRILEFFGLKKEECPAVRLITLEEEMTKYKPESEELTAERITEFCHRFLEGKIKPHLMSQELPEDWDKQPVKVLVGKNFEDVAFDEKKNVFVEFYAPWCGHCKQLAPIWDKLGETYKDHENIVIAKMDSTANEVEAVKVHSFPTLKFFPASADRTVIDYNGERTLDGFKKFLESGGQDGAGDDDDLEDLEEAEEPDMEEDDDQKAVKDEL
# UniProt P30101, residues 25-505: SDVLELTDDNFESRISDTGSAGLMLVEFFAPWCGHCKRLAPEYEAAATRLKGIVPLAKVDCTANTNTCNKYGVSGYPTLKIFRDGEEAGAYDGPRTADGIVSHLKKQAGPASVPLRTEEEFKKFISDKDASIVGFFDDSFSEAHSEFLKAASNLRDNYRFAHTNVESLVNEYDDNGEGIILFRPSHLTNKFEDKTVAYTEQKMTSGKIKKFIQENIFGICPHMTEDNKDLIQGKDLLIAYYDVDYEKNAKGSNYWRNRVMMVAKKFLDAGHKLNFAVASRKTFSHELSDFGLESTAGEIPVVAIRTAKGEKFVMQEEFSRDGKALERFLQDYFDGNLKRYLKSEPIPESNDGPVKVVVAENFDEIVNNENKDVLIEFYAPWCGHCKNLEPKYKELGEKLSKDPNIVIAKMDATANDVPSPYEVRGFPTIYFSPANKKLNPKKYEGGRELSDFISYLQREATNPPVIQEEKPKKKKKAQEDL
# Results are given in words; binding and its absence hold for the method and conditions named. Binding seen in cells or lysates may run through a third protein. A yes stands for co-enrichment or nearness to the bait. Other partners may have been found.
# T1: human Fructosamine-3-kinase (HsFN3K) (human (endogenous in HepG2)) (UniProt Q9H479)
# T1 sequence: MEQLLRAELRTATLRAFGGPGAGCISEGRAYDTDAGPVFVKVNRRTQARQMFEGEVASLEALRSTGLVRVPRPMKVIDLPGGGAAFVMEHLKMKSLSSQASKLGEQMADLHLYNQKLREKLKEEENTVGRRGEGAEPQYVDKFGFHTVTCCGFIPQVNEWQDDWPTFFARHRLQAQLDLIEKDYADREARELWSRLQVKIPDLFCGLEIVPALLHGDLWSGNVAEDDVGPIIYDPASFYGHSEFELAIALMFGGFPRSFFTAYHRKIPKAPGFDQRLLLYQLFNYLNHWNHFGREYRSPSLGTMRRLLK
# B1: protein disulfide isomerase family A member 6 (PDIA6) (enzyme, UniProt Q15084 20-440)
# chain: LYSSSDDVIELTPSNFNREVIQSDSLWLVEFYAPWCGHCQRLTPEWKKAATALKDVVKVGAVDADKHHSLGGQYGVQGFPTIKIFGSNKNRPEDYQGGRTGEAIVDAALSALRQLVKDRLGGRSGGYSSGKQGRSDSSSKKDVIELTDDSFDKNVLDSEDVWMVEFYAPWCGHCKNLEPEWAAAASEVKEQTKGKVKLAAVDATVNQVLASRYGIRGFPTIKIFQKGESPVDYDGGRTRSDIVSRALDLFSDNAPPPELLEIINEDIAKRTCEEHQLCVVAVLPHILDTGAAGRNSYLEVLLKLADKYKKKMWGWLWTEAGAQSELETALGIGGFGYPAMAAINARKMKFALLKGSFSEQGINEFLRELSFGRGSTAPVGGGAFPTIVEREPWDGRDGELPVEDDIDLSDVELDDLGKDEL
# B2: protein disulfide isomerase family A member 4 (PDIA4) (enzyme, UniProt P13667 21-645)
# chain: VAGAEGPDEDSSNRENAIEDEEEEEEEDDDEEEDDLEVKEENGVLVLNDANFDNFVADKDTVLLEFYAPWCGHCKQFAPEYEKIANILKDKDPPIPVAKIDATSASVLASRFDVSGYPTIKILKKGQAVDYEGSRTQEEIVAKVREVSQPDWTPPPEVTLVLTKENFDEVVNDADIILVEFYAPWCGHCKKLAPEYEKAAKELSKRSPPIPLAKVDATAETDLAKRFDVSGYPTLKIFRKGRPYDYNGPREKYGIVDYMIEQSGPPSKEILTLKQVQEFLKDGDDVIIIGVFKGESDPAYQQYQDAANNLREDYKFHHTFSTEIAKFLKVSQGQLVVMQPEKFQSKYEPRSHMMDVQGSTQDSAIKDFVLKYALPLVGHRKVSNDAKRYTRRPLVVVYYSVDFSFDYRAATQFWRSKVLEVAKDFPEYTFAIADEEDYAGEVKDLGLSESGEDVNAAILDESGKKFAMEPEEFDSDTLREFVTAFKKGKLKPVIKSQPVPKNNKGPVKVVVGKTFDSIVMDPKKDVLIEFYAPWCGHCKQLEPVYNSLAKKYKGQKGLVIAKMDATANDVPSDRYKVEGFPTIYFAPSGDKKNPVKFEGGDRDLEHLSKFIEEHATKLSRTKEEL
# Target: T1, human Fructosamine-3-kinase (HsFN3K) (human (endogenous in HepG2))
# Test: affinity purification with mass spectrometry; IP with rabbit polyclonal anti-FN3K antibody and protein A/G plus agarose beads from WT and FN3K KO HepG2 lysates (50 mM Tris-HCl pH 7.4, 150 mM NaCl, 1% Triton X-100, 1 mM EDTA, 10% glycerol), 4C, 18 h; LC-MS/MS; hits: only in WT or LFQ ratio WT/KO > 1.5
row,binding,Molecule
1,binds,prolyl 4-hydroxylase subunit beta (P4HB) (from UniProt P07237 18-508) (enzyme)
2,binds,protein disulfide isomerase family A member 3 (PDIA3) (from UniProt P30101 25-505) (enzyme)
3,binds,B1
4,binds,B2
